Experimental data taken from US20150239824A1, “BRANCHED OR MACROCYCLIC POLYAMINES AND USES THEREOF” (UNIVERSITE DE STRASBOURG, priority 2012, published 2015).
For at least one compound, name, drawing or mass did not settle the structure. Some entries share one result that the patent states for a list of compounds.

System: NIH3T3 cells
Test: Growth of lamellipodia / increase in projected cell area in NIH3T3 cells
Format: cell-based, mouse
Protocol: Polyamine compounds were dissolved in Milli-Q water to give a stock solution of 30 mM. For immunostaining and microscopy experiments, polyamine compounds were added to the cell medium at a final concentration of 100 μM, except for experiments which tested efficiency. For immunostaining experiments, NIH3T3 cells were incubated with Blebbistatin (30 μM), ML7 (10 μM), Y27632 (10 μM), Cytochalasin D (1 μM) (Sigma-Aldrich) for 30 min, LY294002 (50 μM) (Sigma-Aldrich) for 30 minutes. Latrunculin A (1.5 μM) (Sigma-Aldrich) was added for 5 min. After additional 20 min incubation with 100 μM polyamine, cells were fixed and stained.
Increase in cell area for given time point (n=5, 10 and 20 min) was calculated by (A1n-A0)/A0, where A0 and A1n are the areas before and after polyamine addition, respectively. Kymographs for the analysis of actin retrograde flow in the lamellipodia region were performed in ImageJ. Moving features were visualized as diagonal streaks with slope depending on the velocity of movement.
Cells were fixed in 3% PFA (Sigma-Aldrich) for 17 min and then permeabilized with 0.5% Triton solution (Sigma-Aldrich) for 3 min and rinsed twice with 1× PBS. For actin and focal contacts staining, cells were incubated with Alexa 488 phalloidin (1:200, Molecular Probes) and anti-paxillin monoclonal primary antibody (1:50, BD Biosciences) for 45 min at RT. […]

Question: How did the “time until protrusions extending into lamellipodia-like sheets were observed” value (NIH3T3 cells, compound in culture medium) turn out when NCCCN(CCCN)CCCCCCCCN(CCCN)CCCN [C8N6 BPA] was run?
Answer: The value was ≤ 10 min.

Question: For O=c1cc(N2CCOCC2)oc2c(-c3ccccc3)cccc12 [LY294002, reference compound], which “lamellipodial growth with PI3 kinase inhibitor” value (50 μM LY294002, polyamine added subsequently) is on record?
Answer: Its value is “no growth was promoted”.
